The values below come from ChEMBL document CHEMBL1155912, “Synthesis of 6- or 4-functionalized indoles via a reductive cyclization approach and evaluation as aromatase inhibitors” (Bioorg Med Chem Lett, 2008).

pIC50: −log10 of the molar value.

For this test, the target named is T1, Aromatase (Homo sapiens, UniProt P11511).
T1 sequence (P11511 whole entry): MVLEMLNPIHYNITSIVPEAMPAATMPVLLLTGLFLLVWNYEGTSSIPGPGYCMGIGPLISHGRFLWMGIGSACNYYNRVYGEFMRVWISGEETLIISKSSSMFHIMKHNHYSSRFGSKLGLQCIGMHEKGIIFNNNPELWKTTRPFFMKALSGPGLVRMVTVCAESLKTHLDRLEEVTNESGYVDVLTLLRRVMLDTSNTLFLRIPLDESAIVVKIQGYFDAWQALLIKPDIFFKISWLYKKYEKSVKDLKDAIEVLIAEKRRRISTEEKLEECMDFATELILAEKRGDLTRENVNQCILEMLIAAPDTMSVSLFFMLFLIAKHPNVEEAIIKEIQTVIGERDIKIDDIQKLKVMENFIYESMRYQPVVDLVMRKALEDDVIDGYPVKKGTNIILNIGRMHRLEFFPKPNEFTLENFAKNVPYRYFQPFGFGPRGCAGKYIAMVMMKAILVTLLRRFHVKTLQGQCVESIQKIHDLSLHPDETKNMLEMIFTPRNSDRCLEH
Format: microsomes, Placenta, Microsomes.

As to `CC(C)(C#N)c1cc(Cn2cncn2)cc(C(C)(C)C#N)c1` [ANASTROZOLE], the negative logarithm of the IC50 (pIC50) – broadly, the IC50 on a negative log10 scale, so that one unit is a factor of ten – is 8.00.
